Test results from the supplement of paper PMC12823440, “Inhibitors supercharge kinase turnover through native proteolytic circuits” (Nature, 2025).
Structures can show the parent of a compound that is named as a salt. The list shows a part of the results. Hit calls seldom repeat between salt and free forms of one compound.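 In K562 cells expressing nanoluciferase-fused kinases, luminescence was recorded at 4 h intervals between 2 and 18 h, normalized as percent of control with DMSO at 100% and a positive control at 0%. A significant (2 sigma) signal drop marks a time point as decreased. The authors' rule for a hit is not shown and takes in more than the number of time points.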

The chains behind the UniProt entries cited, without tags or fusion partners. Where a name states a change or a piece, a line headed by the entry shows the natural chain unless it says otherwise.
UniProt O15530: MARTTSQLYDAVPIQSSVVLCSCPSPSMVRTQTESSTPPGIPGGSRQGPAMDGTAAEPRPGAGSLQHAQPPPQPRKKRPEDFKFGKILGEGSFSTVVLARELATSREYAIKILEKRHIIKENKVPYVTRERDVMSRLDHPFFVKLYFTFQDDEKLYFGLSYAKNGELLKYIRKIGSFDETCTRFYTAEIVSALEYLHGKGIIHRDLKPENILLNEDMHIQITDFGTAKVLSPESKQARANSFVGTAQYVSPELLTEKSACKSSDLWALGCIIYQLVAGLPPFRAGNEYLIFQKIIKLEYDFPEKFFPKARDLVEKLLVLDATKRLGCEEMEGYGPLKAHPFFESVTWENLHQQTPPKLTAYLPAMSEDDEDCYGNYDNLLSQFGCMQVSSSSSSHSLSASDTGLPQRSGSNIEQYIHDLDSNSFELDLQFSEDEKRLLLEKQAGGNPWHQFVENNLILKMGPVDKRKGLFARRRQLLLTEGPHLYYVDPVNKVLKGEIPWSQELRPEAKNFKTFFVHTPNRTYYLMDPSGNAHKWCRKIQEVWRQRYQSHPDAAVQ
UniProt Q9UBF8: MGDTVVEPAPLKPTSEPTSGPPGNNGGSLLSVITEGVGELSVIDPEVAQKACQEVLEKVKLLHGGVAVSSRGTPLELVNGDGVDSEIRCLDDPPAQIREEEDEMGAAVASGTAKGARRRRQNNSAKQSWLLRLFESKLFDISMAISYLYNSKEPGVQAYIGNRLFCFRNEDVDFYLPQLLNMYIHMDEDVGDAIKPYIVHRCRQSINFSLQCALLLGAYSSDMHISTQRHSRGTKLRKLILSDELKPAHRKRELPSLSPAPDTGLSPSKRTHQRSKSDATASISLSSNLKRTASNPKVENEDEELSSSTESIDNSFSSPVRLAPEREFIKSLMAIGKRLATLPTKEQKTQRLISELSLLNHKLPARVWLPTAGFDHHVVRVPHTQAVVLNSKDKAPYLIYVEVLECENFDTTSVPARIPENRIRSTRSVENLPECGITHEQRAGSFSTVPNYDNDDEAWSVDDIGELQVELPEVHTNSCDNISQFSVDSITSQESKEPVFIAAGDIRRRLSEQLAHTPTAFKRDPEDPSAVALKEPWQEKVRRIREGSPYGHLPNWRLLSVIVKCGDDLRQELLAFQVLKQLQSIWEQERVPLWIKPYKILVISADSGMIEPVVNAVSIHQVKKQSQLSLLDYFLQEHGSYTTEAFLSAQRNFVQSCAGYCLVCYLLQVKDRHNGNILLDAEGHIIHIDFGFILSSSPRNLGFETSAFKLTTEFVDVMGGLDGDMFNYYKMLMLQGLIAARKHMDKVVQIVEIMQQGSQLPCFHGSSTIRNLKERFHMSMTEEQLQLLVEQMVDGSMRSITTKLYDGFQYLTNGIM
UniProt Q13131: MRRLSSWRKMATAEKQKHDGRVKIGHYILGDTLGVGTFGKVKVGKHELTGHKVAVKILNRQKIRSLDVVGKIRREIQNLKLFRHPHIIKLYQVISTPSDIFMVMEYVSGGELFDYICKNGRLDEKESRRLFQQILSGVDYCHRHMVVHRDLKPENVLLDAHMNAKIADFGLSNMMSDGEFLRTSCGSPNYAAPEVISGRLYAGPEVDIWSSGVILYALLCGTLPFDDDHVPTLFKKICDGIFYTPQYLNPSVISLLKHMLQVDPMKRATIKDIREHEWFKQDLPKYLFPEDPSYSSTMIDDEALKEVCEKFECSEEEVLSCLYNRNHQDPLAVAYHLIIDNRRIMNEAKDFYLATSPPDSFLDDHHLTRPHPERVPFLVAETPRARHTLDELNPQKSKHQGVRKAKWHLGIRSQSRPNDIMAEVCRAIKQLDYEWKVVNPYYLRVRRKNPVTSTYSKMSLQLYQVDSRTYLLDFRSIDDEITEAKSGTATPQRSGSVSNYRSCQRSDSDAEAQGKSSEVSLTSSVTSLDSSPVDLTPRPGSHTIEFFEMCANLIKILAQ
UniProt Q05397, whole entry, looked up: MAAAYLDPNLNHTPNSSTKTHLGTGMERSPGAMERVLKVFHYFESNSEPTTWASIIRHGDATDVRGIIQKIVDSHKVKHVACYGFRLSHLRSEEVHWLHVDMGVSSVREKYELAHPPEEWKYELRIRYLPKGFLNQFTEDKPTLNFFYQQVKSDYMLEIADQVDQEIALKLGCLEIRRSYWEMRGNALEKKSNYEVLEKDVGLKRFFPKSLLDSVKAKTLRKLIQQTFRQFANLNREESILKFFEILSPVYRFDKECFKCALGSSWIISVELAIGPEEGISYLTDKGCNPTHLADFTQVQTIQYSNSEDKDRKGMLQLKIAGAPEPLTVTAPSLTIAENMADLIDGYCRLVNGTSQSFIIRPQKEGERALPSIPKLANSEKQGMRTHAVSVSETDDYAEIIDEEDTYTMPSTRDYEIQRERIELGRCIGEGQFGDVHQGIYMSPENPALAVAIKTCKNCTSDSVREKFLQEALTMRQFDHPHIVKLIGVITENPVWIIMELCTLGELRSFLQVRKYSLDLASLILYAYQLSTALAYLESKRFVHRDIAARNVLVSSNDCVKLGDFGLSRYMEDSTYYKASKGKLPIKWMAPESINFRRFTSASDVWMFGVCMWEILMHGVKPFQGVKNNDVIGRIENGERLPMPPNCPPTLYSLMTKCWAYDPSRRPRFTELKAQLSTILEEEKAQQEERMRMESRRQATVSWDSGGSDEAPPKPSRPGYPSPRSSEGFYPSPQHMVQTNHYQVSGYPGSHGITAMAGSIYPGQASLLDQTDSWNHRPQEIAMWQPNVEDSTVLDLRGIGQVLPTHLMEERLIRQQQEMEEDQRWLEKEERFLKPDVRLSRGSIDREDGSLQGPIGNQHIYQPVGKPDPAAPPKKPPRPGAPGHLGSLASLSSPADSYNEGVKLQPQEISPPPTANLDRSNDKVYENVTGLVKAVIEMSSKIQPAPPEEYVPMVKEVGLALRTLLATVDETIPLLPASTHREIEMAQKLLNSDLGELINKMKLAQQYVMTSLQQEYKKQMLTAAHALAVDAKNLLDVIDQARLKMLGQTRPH
UniProt Q13546: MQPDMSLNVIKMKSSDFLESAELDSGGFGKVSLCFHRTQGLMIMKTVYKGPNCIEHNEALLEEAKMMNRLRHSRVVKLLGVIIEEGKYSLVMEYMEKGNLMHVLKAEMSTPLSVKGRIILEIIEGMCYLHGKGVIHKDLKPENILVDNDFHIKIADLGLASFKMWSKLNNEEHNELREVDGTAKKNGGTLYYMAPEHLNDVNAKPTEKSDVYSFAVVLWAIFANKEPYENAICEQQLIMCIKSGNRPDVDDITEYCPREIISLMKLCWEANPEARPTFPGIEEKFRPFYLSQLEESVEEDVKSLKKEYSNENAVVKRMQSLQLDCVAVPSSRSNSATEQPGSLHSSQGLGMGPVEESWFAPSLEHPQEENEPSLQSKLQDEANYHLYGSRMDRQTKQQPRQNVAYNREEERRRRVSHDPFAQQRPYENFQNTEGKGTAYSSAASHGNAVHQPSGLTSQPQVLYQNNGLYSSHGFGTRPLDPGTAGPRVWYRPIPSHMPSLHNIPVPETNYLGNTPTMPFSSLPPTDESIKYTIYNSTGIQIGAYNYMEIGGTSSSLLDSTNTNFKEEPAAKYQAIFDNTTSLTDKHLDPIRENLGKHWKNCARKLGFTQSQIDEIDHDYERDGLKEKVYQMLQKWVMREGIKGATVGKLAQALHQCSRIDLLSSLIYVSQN
UniProt Q01974, whole entry: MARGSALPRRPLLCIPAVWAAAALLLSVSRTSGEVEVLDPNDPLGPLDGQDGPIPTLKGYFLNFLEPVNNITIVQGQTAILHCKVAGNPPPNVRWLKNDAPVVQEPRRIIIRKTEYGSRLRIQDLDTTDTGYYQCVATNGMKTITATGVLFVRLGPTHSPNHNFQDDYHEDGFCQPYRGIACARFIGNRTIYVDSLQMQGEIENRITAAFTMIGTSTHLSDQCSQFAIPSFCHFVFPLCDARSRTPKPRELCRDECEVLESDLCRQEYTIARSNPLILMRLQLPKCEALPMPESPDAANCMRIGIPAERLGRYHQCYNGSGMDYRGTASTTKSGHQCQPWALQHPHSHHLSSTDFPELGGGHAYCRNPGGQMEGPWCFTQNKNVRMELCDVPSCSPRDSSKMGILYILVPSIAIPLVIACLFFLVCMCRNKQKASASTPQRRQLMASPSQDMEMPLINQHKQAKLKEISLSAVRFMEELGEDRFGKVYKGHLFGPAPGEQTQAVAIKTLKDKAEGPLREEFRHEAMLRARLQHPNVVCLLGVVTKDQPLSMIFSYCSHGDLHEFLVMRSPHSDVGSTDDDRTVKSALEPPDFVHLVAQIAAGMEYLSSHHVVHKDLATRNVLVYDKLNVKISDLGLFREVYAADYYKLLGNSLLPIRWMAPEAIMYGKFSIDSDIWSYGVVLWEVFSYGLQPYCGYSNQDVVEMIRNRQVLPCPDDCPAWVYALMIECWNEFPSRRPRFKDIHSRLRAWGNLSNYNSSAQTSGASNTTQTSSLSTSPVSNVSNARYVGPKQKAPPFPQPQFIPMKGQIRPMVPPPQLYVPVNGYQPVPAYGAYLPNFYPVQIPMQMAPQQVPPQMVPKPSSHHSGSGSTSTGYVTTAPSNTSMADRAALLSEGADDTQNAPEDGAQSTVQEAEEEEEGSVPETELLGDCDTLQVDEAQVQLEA
UniProt Q15418, whole entry: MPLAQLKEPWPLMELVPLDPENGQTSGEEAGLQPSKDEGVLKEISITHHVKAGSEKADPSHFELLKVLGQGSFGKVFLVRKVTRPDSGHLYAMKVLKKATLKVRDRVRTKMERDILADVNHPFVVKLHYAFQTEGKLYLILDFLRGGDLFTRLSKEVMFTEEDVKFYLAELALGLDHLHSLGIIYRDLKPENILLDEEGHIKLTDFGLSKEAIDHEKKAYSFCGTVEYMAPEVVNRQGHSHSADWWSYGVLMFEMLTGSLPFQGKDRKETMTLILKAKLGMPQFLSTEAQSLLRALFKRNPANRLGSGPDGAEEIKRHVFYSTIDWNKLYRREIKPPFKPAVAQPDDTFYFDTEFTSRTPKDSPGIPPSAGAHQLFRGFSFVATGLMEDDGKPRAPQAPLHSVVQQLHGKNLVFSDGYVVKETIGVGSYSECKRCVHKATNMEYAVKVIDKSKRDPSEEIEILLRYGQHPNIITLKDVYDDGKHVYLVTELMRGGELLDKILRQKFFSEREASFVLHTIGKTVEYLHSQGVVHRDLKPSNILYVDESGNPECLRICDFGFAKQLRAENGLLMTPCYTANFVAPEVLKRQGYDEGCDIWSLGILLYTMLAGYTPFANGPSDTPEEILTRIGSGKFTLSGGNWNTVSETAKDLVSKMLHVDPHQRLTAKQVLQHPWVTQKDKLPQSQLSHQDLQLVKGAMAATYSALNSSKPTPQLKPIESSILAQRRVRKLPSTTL
UniProt Q9NYA1, whole entry: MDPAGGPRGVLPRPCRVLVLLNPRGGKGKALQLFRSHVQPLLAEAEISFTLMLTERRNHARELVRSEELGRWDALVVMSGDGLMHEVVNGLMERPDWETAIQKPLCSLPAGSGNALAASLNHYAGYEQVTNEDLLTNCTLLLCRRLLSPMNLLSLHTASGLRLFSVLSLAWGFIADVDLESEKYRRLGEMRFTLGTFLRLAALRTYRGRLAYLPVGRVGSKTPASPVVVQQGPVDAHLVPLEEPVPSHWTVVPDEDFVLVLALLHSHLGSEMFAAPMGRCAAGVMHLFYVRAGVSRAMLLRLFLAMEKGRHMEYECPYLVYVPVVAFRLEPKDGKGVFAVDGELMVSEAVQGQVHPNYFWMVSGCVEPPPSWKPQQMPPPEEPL

How the values were obtained:
Assay in all cases: kinase-Nluc reporter destabilization hit call (1 = scored as downregulated) (binary); higher = compound decreases kinase abundance
Conditions in all cases: K562; 2-18 h
PDPK1 = PDPK1 (UniProt O15530)
PIK4CA = PIK4CA (UniProt P42356)
PIK4CB = PIK4CB (UniProt Q9UBF8)
PLK1 = PLK1 (UniProt P53350)
PRKAA1 = PRKAA1 (UniProt Q13131)
PRKCA = PRKCA (UniProt P17252)
PTK2 = PTK2 (UniProt Q05397)
PTK2B = PTK2B (UniProt Q14289)
RAF1 = RAF1 (UniProt P04049)
[1] = target: RAF1_S257L (clone: RAF1_mut) (UniProt P04049)
RET = RET (UniProt P07949)
[2] = target: RET_M918T (clone: RET_mut) (UniProt P07949)
RIOK1 = RIOK1 (UniProt Q9BRS2)
RIPK1 = RIPK1 (UniProt Q13546)
RIPK2 = RIPK2 (UniProt O43353)
ROR2 = ROR2 (UniProt Q01974)
RPS6KA1 = RPS6KA1 (UniProt Q15418)
SPHK1 = SPHK1 (UniProt Q9NYA1)
SRC = SRC (UniProt P12931)
STK24 = STK24 (UniProt Q9Y6E0)

Measured: kinase-Nluc reporter destabilization hit call

NC(=O)c1nc(-c2c(F)cccc2Cl)oc1Nc1ccc(C(=O)N2CCOCC2)cc1 (10 µM)
inactive: PDPK1 = 0 | PIK4CA 0 | PIK4CB 0 | PLK1 = 0 | PRKAA1 = 0 | PRKCA 0 | PTK2 = 0 | PTK2B 0 | RAF1 = 0 | [1] 0 | RET 0 | [2] 0 | RIOK1 = 0 | RIPK1 = 0 | RIPK2 = 0 | ROR2 = 0 | RPS6KA1 = 0 | SPHK1 = 0 | SRC 0 | STK24 = 0

O=C(NCc1cccc(O)c1)c1cc2cc(F)ccc2[nH]1 (10 µM)
inactive: PDPK1 = 0 | PIK4CA 0 | PIK4CB 0 | PLK1 = 0 | PRKAA1 = 0 | PRKCA 0 | PTK2 = 0 | PTK2B 0 | RAF1 = 0 | [1] 0 | RET 0 | [2] 0 | RIOK1 = 0 | RIPK1 = 0 | RIPK2 = 0 | ROR2 = 0 | RPS6KA1 = 0 | SPHK1 = 0 | SRC 0 | STK24 = 0

C[C@H](CC[C@@H](O)C(C)(C)O)[C@H]1CC[C@@]2(C)[C@@H]3CC=C4[C@@H](CC[C@H](O)C4(C)C)[C@]3(C)[C@H](O)C[C@]12C [Mogrol] (10 µM)
inactive: PDPK1 = 0 | PIK4CA 0 | PIK4CB 0 | PLK1 = 0 | PRKAA1 = 0 | PRKCA 0 | PTK2 = 0 | PTK2B 0 | RAF1 = 0 | [1] 0 | RET 0 | [2] 0 | RIOK1 = 0 | RIPK1 = 0 | RIPK2 = 0 | ROR2 = 0 | RPS6KA1 = 0 | SPHK1 = 0 | SRC 0 | STK24 = 0

N#Cc1cn([C@@H]2O[C@H](CO)[C@@H](O)[C@H]2O)c2nc[nH]c(=O)c12 [Jaspamycin] (10 µM)
inactive: PDPK1 = 0 | PIK4CA 0 | PIK4CB 0 | PLK1 = 0 | PRKAA1 = 0 | PRKCA 0 | PTK2 = 0 | PTK2B 0 | RAF1 = 0 | [1] 0 | RET 0 | [2] 0 | RIOK1 = 0 | RIPK1 = 0 | RIPK2 = 0 | ROR2 = 0 | RPS6KA1 = 0 | SPHK1 = 0 | SRC 0 | STK24 = 0

Cn1cc(-c2cn3nccc3c(-c3cnn([C@]4(CC#N)C[C@@H](C#N)C4)c3)n2)cn1 (10 µM)
inactive: PDPK1 = 0 | PIK4CA 0 | PIK4CB 0 | PLK1 = 0 | PRKAA1 = 0 | PRKCA 0 | PTK2 = 0 | PTK2B 0 | RAF1 = 0 | [1] 0 | RET 0 | [2] 0 | RIOK1 = 0 | RIPK1 = 0 | RIPK2 = 0 | ROR2 = 0 | RPS6KA1 = 0 | SPHK1 = 0 | SRC 0 | STK24 = 0

COc1ccc(S(=O)(=O)N(CCO)c2ccccc2CN(C)CC=Cc2ccc(Cl)cc2)cc1 (2.5 µM)
inactive: PDPK1 = 0 | PIK4CA 0 | PIK4CB 0 | PLK1 = 0 | PRKAA1 = 0 | PRKCA 0 | PTK2 = 0 | PTK2B 0 | RAF1 = 0 | [1] 0 | RET 0 | [2] 0 | RIOK1 = 0 | RIPK1 = 0 | RIPK2 = 0 | ROR2 = 0 | RPS6KA1 = 0 | SPHK1 = 0 | SRC 0 | STK24 = 0

CCn1c(-c2nonc2N)nc2c(C#CCO)ncc(OCCCN)c21 [AKT Kinase Inhibitor] (10 µM)
inactive: PDPK1 = 0 | PIK4CA 0 | PIK4CB 0 | PLK1 = 0 | PRKAA1 = 0 | PRKCA 0 | PTK2 = 0 | PTK2B 0 | RAF1 = 0 | [1] 0 | RET 0 | [2] 0 | RIOK1 = 0 | RIPK1 = 0 | RIPK2 = 0 | ROR2 = 0 | RPS6KA1 = 0 | SPHK1 = 0 | SRC 0 | STK24 = 0

COc1cc(-c2cnc(N)c(-c3ccc(NC(=O)c4cn(CC5CCOCC5)cc(-c5ccc(C)cn5)c4=O)cc3F)c2)ccc1OC[C@H]1COCCO1 [DS-1205b (free base)] (10 µM)
inactive: PDPK1 = 0 | PIK4CA 0 | PIK4CB 0 | PLK1 = 0 | PRKAA1 = 0 | PRKCA 0 | PTK2 = 0 | PTK2B 0 | RAF1 = 0 | [1] 0 | RET 0 | [2] 0 | RIOK1 = 0 | RIPK1 = 0 | RIPK2 = 0 | ROR2 = 0 | RPS6KA1 = 0 | SPHK1 = 0 | SRC 0 | STK24 = 0

Cc1c(C(=O)Nc2ccc(Oc3ccnc4cc(OCC(C)(C)O)ccc34)c(F)c2)c(=O)n(-c2ccccc2)n1C [Ningetinib Tosylate] (10 µM)
inactive: PDPK1 = 0 | PIK4CA 0 | PIK4CB 0 | PLK1 = 0 | PRKAA1 = 0 | PRKCA 0 | PTK2 = 0 | PTK2B 0 | RAF1 = 0 | [1] 0 | RET 0 | [2] 0 | RIOK1 = 0 | RIPK1 = 0 | RIPK2 = 0 | ROR2 = 0 | RPS6KA1 = 0 | SPHK1 = 0 | SRC 0 | STK24 = 0

2 records picked at random from the list so far:
Cn1cc(-c2cn3nccc3c(-c3cnn([C@]4(CC#N)C[C@@H](C#N)C4)c3)n2)cn1 (10 µM)
inactive: PDPK1 = 0 | PIK4CA 0 | PIK4CB 0 | PLK1 = 0 | PRKAA1 = 0 | PRKCA 0 | PTK2 = 0 | PTK2B 0 | RAF1 = 0 | [1] 0 | RET 0 | [2] 0 | RIOK1 = 0 | RIPK1 = 0 | RIPK2 = 0 | ROR2 = 0 | RPS6KA1 = 0 | SPHK1 = 0 | SRC 0 | STK24 = 0

N#Cc1cn([C@@H]2O[C@H](CO)[C@@H](O)[C@H]2O)c2nc[nH]c(=O)c12 [Jaspamycin] (10 µM)
inactive: PDPK1 = 0 | PIK4CA 0 | PIK4CB 0 | PLK1 = 0 | PRKAA1 = 0 | PRKCA 0 | PTK2 = 0 | PTK2B 0 | RAF1 = 0 | [1] 0 | RET 0 | [2] 0 | RIOK1 = 0 | RIPK1 = 0 | RIPK2 = 0 | ROR2 = 0 | RPS6KA1 = 0 | SPHK1 = 0 | SRC 0 | STK24 = 0

The listing continues:

CN1CCN(c2ccc(NC(=O)c3ccc(C#N)o3)c(N3CCCCC3)c2)CC1 (10 µM)
inactive: PDPK1 = 0 | PIK4CA 0 | PIK4CB 0 | PLK1 = 0 | PRKAA1 = 0 | PRKCA 0 | PTK2 = 0 | PTK2B 0 | RAF1 = 0 | [1] 0 | RET 0 | [2] 0 | RIOK1 = 0 | RIPK1 = 0 | RIPK2 = 0 | ROR2 = 0 | RPS6KA1 = 0 | SPHK1 = 0 | SRC 0 | STK24 = 0

O=C1C(=Cc2ccc(O)c(O)c2)Oc2ccccc21 (2.5 µM)
inactive: PDPK1 = 0 | PIK4CA 0 | PIK4CB 0 | PLK1 = 0 | PRKAA1 = 0 | PRKCA 0 | PTK2 = 0 | PTK2B 0 | RAF1 = 0 | [1] 0 | RET 0 | [2] 0 | RIOK1 = 0 | RIPK1 = 0 | RIPK2 = 0 | ROR2 = 0 | RPS6KA1 = 0 | SPHK1 = 0 | SRC 0 | STK24 = 0

CCCC[C@H](CO)Nc1nc(NC)ncc1OC [Interferon receptor inducer-1] (10 µM)
inactive: PDPK1 = 0 | PIK4CA 0 | PIK4CB 0 | PLK1 = 0 | PRKAA1 = 0 | PRKCA 0 | PTK2 = 0 | PTK2B 0 | RAF1 = 0 | [1] 0 | RET 0 | [2] 0 | RIOK1 = 0 | RIPK1 = 0 | RIPK2 = 0 | ROR2 = 0 | RPS6KA1 = 0 | SPHK1 = 0 | SRC 0 | STK24 = 0

CCC(=O)N1CC[C@H](Nc2ncnc3c2CN(c2cnc(OC)c(C(F)(F)F)c2)CC3)C1 [Leniolisib] (10 µM)
inactive: PDPK1 = 0 | PIK4CA 0 | PIK4CB 0 | PLK1 = 0 | PRKAA1 = 0 | PRKCA 0 | PTK2 = 0 | PTK2B 0 | RAF1 = 0 | [1] 0 | RET 0 | [2] 0 | RIOK1 = 0 | RIPK1 = 0 | RIPK2 = 0 | ROR2 = 0 | RPS6KA1 = 0 | SPHK1 = 0 | SRC 0 | STK24 = 0

CN1CCC(c2ccccc2CC(C)(C)Nc2nc(N3CCOCC3)nc(-n3c(S(C)(=O)=O)nc4ccccc43)n2)CC1 (10 µM)
inactive: PDPK1 = 0 | PIK4CA 0 | PIK4CB 0 | PLK1 = 0 | PRKAA1 = 0 | PRKCA 0 | PTK2 = 0 | PTK2B 0 | RAF1 = 0 | [1] 0 | RET 0 | [2] 0 | RIOK1 = 0 | RIPK1 = 0 | RIPK2 = 0 | ROR2 = 0 | RPS6KA1 = 0 | SPHK1 = 0 | SRC 0 | STK24 = 0

COc1cccc2cc(-c3nc([C@H]4CC[C@H](C(=O)O)CC4)n4ncnc(N)c34)[nH]c12 (2.5 µM)
inactive: PDPK1 = 0 | PIK4CA 0 | PIK4CB 0 | PLK1 = 0 | PRKAA1 = 0 | PRKCA 0 | PTK2 = 0 | PTK2B 0 | RAF1 = 0 | [1] 0 | RET 0 | [2] 0 | RIOK1 = 0 | RIPK1 = 0 | RIPK2 = 0 | ROR2 = 0 | RPS6KA1 = 0 | SPHK1 = 0 | SRC 0 | STK24 = 0

O=C1NC(=O)C(c2ccccc2[N+](=O)[O-])=C1Nc1ccc(O)c(Cl)c1 (10 µM)
inactive: PDPK1 = 0 | PIK4CA 0 | PIK4CB 0 | PLK1 = 0 | PRKAA1 = 0 | PRKCA 0 | PTK2 = 0 | PTK2B 0 | RAF1 = 0 | [1] 0 | RET 0 | [2] 0 | RIOK1 = 0 | RIPK1 = 0 | RIPK2 = 0 | ROR2 = 0 | RPS6KA1 = 0 | SPHK1 = 0 | SRC 0 | STK24 = 0

O=c1sn(-c2cccc3ccccc23)c(=O)n1Cc1ccccc1 [Tideglusib] (10 µM)
inactive: PDPK1 = 0 | PIK4CA 0 | PIK4CB 0 | PLK1 = 0 | PRKAA1 = 0 | PRKCA 0 | PTK2 = 0 | PTK2B 0 | RAF1 = 0 | [1] 0 | RET 0 | [2] 0 | RIOK1 = 0 | RIPK1 = 0 | RIPK2 = 0 | ROR2 = 0 | RPS6KA1 = 0 | SPHK1 = 0 | SRC 0 | STK24 = 0

O=C(Nc1nc2cccc(-c3ccc(CN4CCS(=O)(=O)CC4)cc3)n2n1)C1CC1 [Filgotinib] (2.5 µM)
inactive: PDPK1 = 0 | PIK4CA 0 | PIK4CB 0 | PLK1 = 0 | PRKAA1 = 0 | PRKCA 0 | PTK2 = 0 | PTK2B 0 | RAF1 = 0 | [1] 0 | RET 0 | [2] 0 | RIOK1 = 0 | RIPK1 = 0 | RIPK2 = 0 | ROR2 = 0 | RPS6KA1 = 0 | SPHK1 = 0 | SRC 0 | STK24 = 0
